From PMC5996148
This is one part of the list. For some of these results: The source does not settle which construct or isoform was used.

Assays:
Experiment in all cases: protein microarray (ProtoArray v5.0), streptavidin-Alexa Fluor 647
Conditions in all cases: 3'-biotin; 20 mM Tris (pH 7.5), 5 mM MgCl2, 100 mM KCl, 0.1% Tween-20, A/T-rich and random oligonucleotide blockers; temperature not stated; high values mean tight binding
APPL2 (human) = tested on: APPL2 (human)
AQP5 (human) = tested on: AQP5 (human)
AQP8 = biological target: T1, AQP8 (UniProt O94778)
T1 sequence: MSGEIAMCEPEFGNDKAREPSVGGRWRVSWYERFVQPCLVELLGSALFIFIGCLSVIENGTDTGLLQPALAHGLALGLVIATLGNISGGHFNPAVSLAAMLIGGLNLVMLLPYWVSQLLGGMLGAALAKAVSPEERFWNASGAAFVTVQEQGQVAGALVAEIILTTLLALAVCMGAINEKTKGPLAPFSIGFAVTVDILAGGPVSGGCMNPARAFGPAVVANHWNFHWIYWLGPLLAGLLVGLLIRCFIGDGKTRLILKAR

ARF4 (human) = tested on: ARF4 (human)
ARF5 (human) = tested on: ARF5 (human)
ARFIP2 (human) = tested on: ARFIP2 (human)
ARHGDIB (human) = tested on: ARHGDIB (human)
ARID3B (human) = tested on: ARID3B (human)
ARL1 (human) = tested on: ARL1 (human)
ARL3 (human) = tested on: ARL3 (human)

In the case of “GGTGACAGGGGTATGGGGAGGGG [G4-2 biotinylated (Ct1)]”, the binding signal (APPL2 (human)) is reported as -0.376 z-score, the binding signal (AQP5 (human)) is reported as -0.39 z-score and the binding signal (AQP8) is reported as -0.392 z-score. The binding signal (ARF4 (human)) was -0.391 z-score, the binding signal (ARF5 (human)) was -0.385 z-score and the binding signal (ARFIP2 (human)) was -0.397 z-score. The binding signal (ARHGDIB (human)) was -0.381 z-score, the binding signal (ARID3B (human)) was -0.39 z-score and the binding signal (ARL1 (human)) was -0.365 z-score. For the same sequence, the binding signal (ARL3 (human)) was -0.376 z-score.
